Experiment [1] has as its target Flag-tag Smad3 (UniProt P84022). Put plainly: co-immunoprecipitation (anti-myc IP, anti-flag blot) from COS1 cells.
Experiment [2] has the same target. Briefly: co-immunoprecipitation (anti-myc IP, anti-flag blot) from COS1 cells, with or without 4 ng/ml TGF-b.
For experiment [3], the target named is Smad3 fused with the C-terminal part of Yellow Fluorescent protein (YFP) (UniProt P84022). Put plainly: Bimolecular Fluorescence Complementation in cells.
Another experiment has as its target Smad3 (UniProt P84022). Put plainly: summary of coIP and BiFC.

Chains of the proteins cited; added tags and fusions are not shown. Lines headed by an entry give the natural chain unless they say otherwise; changes in a name come on top. Residues count along the entry.
UniProt P84022: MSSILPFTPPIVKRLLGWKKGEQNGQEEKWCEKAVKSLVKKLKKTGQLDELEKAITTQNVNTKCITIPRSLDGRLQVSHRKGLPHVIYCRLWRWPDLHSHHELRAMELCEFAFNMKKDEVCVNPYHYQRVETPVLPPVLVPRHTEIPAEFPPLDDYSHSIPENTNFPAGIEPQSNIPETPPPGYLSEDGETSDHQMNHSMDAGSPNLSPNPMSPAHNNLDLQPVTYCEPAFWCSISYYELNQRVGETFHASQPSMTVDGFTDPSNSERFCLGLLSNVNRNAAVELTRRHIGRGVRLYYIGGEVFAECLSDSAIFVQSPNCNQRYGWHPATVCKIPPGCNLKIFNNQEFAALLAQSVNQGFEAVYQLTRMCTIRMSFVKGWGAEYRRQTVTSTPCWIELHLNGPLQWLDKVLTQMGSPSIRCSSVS
Smad3: residues 2-425 of P84022

These are yes or no findings as the source states them, for the method shown. For some of these results: In cells and extracts the contact can be indirect. Some results given as binding are weak or reduced against the parent protein; the word gives no strength. For some of these results: Where a sequence is shown, tags or fusion partners need not be part of it.

B1: myc-tag HEYL (protein, UniProt Q9NQ87 1-328, looked up, not shown: small tags and cut ends)
chain: MKRPKEPSGSDGESDGPIDVGQEGQLSQMARPLSTPSSSQMQARKKHRGIIEKRRRDRINSSLSELRRLVPTAFEKQGSSKLEKAEVLQMTVDHLKMLHATGGTGFFDARALAVDFRSIGFRECLTEVIRYLGVLEGPSSRADPVRIRLLSHLNSYAAEMEPSPTPTGPLAFPAWPWSFFHSCPGLPALSNQLAILGRVPSPVLPGVSSPAYPIPALRTAPLRRATGIILPARRNVLPSRGASSTRRARPLERPATPVPVAPSSRAARSSHIAPLLQSSSPTPPGPTGSAAYVAVPTPNSSSPGPAGRPAGAMLYHSWVSEITEIGAF
For B1, the binding result with Flag-tag Smad3 [1] and in the experiment with Flag-tag Smad3 [2] was “binds” each time.

B2: HEYL fused with the N-terminal part of Yellow Fluorescent protein (YFP) (protein, UniProt Q9NQ87 1-328, looked up, not shown: large carriers)
chain: B1 chain
Consider B2, for which the binding result in experiment [3] is given as “binds”.

B3: HEYL (protein, UniProt Q9NQ87 1-328, looked up)
chain: B1 chain
Turning to B3, in the experiment with Smad3, the binding result is “binds”.
